Assay results as given in article PMC6901542.
Results are given in words; binding and its absence hold for the method and conditions named. Binding seen in cells or lysates may run through a third protein.

The chains behind the UniProt entries cited, without tags or fusion partners. Residues count along the entry.
UniProt Q04206: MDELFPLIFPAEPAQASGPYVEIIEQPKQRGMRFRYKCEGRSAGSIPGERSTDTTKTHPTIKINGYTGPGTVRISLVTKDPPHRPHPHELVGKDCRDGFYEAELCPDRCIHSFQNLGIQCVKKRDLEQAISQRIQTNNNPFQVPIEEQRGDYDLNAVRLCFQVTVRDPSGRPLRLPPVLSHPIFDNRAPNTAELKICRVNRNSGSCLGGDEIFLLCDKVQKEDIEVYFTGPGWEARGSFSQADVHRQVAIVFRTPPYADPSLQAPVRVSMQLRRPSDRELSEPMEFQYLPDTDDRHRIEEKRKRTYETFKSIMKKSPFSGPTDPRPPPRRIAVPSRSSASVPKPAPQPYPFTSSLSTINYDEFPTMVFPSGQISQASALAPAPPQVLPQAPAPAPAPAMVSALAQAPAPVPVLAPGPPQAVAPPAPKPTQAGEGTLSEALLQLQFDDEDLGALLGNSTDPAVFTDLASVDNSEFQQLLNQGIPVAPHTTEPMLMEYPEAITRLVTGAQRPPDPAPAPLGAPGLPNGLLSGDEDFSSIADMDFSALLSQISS
UniProt P80188, residues 21-198: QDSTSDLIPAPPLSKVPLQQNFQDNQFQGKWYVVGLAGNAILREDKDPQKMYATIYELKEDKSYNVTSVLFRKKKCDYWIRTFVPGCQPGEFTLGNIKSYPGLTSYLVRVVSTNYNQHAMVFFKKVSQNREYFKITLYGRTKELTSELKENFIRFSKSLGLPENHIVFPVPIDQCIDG

Target: NF-κB RelA (p65), endogenous (human (endogenous in OSCC cells CAL-27 or SCC-9)) (UniProt Q04206)
Test: co-IP; endogenous proteins; clarified supernatants incubated with antibody (LCN2, RPS3 or NF-κB/P65) for 2 h, then protein A/G magnetic beads overnight; washed three times with NETN buffer; western blot; RPS3-IP also done in LCN2 knock-down and LCN2-overexpressing stable cell lines

- binding: no binding
Substance: lipocalin 2 (LCN2), endogenous (from UniProt P80188 21-198)
